Literature values as cited in US20090298820A1, “3-SUBSTITUTED-1H-PYRROLO[2,3-B]PYRIDINE AND 3-SUBSTITUTED-1H-PYRROLO[3,2-B]PYRIDINE COMPOUNDS, THEIR USE AS MTOR KINASE AND PI3 KINASE INHIBITORS, AND THEIR SYNTHESES” (Wyeth, priority 2008, published 2009).
At least one structure is not confirmed: it was looked up by name or label, or the drawing left a doubt.

System: prostrate, breast, ovarian, lung, multiple myeloma, and brain cancers
Conditions: cited from earlier work

Q: With N=C(N)NCCC[C@H](NC(=O)CCC(=O)OC[N+]1(c2cc(=O)c3cccc(-c4ccccc4)c3o2)CCOCC1)C(=O)NCC(=O)N[C@@H](CC(=O)O)C(=O)N[C@@H](CO)C(=O)[O-] [SF-1126] as the compound, how does the “activity in preclinical mouse cancer models” value read?
A: active
